Measurements reported in PubChem BioAssay AID1671190 (National Center for Advancing Translational Sciences (NCATS), 2021).
Out of some 580,000 compounds screened, about 6,100 (1.1%) were called active. Inconclusive results, whose numbers are uncertain, are shown with a selection of clear calls. Calls follow the shape of the dose curve; as a rule, active = well fitted inhibition curve with a large enough effect; inconclusive = small, poorly fitted or top-dose-only effect, or another doubt; inactive = no such curve, though single readings can be large or run the other way. Potencies beside an inconclusive call are fits to weak or partial responses and may not hold up.

Chains of the proteins cited; added tags and fusions are not shown. Lines headed by an entry give the natural chain unless they say otherwise; changes in a name come on top.
UniProt P18054: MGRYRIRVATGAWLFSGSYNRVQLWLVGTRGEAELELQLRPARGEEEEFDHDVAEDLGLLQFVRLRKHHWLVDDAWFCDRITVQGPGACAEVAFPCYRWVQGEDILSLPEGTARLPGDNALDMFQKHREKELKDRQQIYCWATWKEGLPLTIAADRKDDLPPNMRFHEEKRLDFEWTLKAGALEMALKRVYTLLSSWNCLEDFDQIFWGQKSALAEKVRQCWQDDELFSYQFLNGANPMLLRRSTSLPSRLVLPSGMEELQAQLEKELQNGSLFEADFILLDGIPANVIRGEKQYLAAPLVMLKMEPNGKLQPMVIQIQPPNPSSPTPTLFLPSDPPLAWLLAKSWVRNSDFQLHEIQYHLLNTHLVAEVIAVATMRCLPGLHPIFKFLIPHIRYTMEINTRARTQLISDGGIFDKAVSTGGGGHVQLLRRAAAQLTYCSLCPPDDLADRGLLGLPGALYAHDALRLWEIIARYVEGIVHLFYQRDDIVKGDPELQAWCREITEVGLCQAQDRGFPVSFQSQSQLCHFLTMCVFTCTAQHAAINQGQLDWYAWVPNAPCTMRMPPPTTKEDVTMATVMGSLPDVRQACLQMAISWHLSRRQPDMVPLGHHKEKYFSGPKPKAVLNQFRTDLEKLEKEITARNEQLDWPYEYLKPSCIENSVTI

Target: Polyunsaturated fatty acid lipoxygenase ALOX12 (Homo sapiens) (UniProt P18054)
Test: Primary qHTS assay for inhibitors of human arachidonate 12S-lipoxygenase (ALOX12): Round 2
Conditions: purified 12hLO, xylenol orange hydroperoxide absorbance; activity change, negative = inhibition: at 108 µM (top of the series) unless noted
Method in brief: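 Purified human 12hLO at 150 nM in 25 mM Hepes, 0.01% Triton X-100, pH 7.0, preincubated 15 min at room temperature with compound. Reaction started with 40 uM arachidonic acid, 30 min at room temperature. Hydroperoxide measured by Fe-xylenol orange, 573/405 nm absorbance ratio.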
% is scaled to controls: 0 for no effect and ±100 for the full control effect; potency is read from the fitted curve at half-maximal effect.

SMILES | Potency | activity change, negative = inhibition
Cc1nc2scc(C)n2c1/C=C/c1cc(C(=O)O)c2ccccc2n1 | inconclusive: 56.2 µM [inhibitor, partial curve, poor fit] | –
O=C(Nc1nc2ccccc2s1)NC1CCCCC1 | inconclusive: 100 µM [inhibitor, single point] | –
CCN1C(=O)C(Cc2nc3ccccc3c(=O)n2CCCO)c2cc(C)ccc21 (stereo not drawn) | – | inconclusive: -32.7% [inhibitor]
CCC(=O)Nc1cccc(Oc2nc(C)cc(C)c2C#N)c1 | – | inactive: 5.95%
O=C(O)c1cccc2c1C(=O)c1ccc(N3CCN(Cc4ccc5c(c4)OCO5)CC3)cc1S2(=O)=O | inconclusive: 112 µM [inhibitor, single point] | –
COc1ccccc1C(=O)N1CCN(c2nc3cc(C)c(C)cc3cc2C#N)CC1 | – | inactive: -16.3%
N#Cc1cccnc1NCCNc1cccc2ccccc12 | inconclusive: 6.31 µM [inhibitor, full curve, poor fit] | –
CNC(=O)[C@@H]1CN(Cc2c(F)cccc2Cl)C[C@H]1CO | – | inactive: 42.5%
CC(C)C(=O)NCC1CN(Cc2ccccc2)C(=O)c2c(ccnc2-c2ccc(OCC(=O)O)cc2)O1 (stereo not drawn) | inconclusive: 28.2 µM [inhibitor, single point] | –
C=CCn1c(-c2cccc(OC)c2OC)n[nH]c1=S | inconclusive: 22.4 µM [inhibitor, partial curve, poor fit] | –
Cc1ccc(Nc2nnc(-c3ccc4c(c3)OCO4)o2)c(C)c1 | inconclusive: 8.91 µM [inhibitor, partial curve, poor fit] | –
Cc1ccsc1C(=O)N1CCc2onc(-c3ccc(F)c(F)c3)c2C1 | – | inactive: 30.9%
O=C1[C@H]2[C@@H](c3ccc(C(F)(F)F)cc3)N[C@]3(CCCN(Cc4ccc(F)cc4)C3=O)[C@H]2C(=O)N1Cc1ccccc1 | inconclusive: 89.1 µM [inhibitor, partial curve, poor fit] | –
O=C(O)c1ccc(Br)cc1C(=O)O | inconclusive: 25.1 µM [inhibitor, partial curve, poor fit] | –
Cc1ccccc1N1CC(O)(c2ccccc2)[N+]2=C1SCC2 (stereo not drawn) | inconclusive: 44.7 µM [inhibitor, partial curve, poor fit] | –
O=C(Nc1cnc(-c2ccccc2)nc1)c1ccco1 | – | inactive: -11.1%
Cc1ccc(Oc2cc(C#N)c3ccccc3n2)cc1C | inconclusive: 39.8 µM [inhibitor, partial curve, poor fit] | –
CC(=O)N1CCC([C@@H]2CN(Cc3cccnc3)C[C@H]2CO)CC1 | – | inactive: 53.6%
COc1cccc(CNC(=O)N2c3ccccc3CC2c2noc(C3CCOCC3)n2)c1 (stereo not drawn) | – | inactive: 52.6%
O=C(c1cccc([N+](=O)[O-])c1)N1CCc2c(c3ccccc3n2CC2CC2)C1 | inconclusive: 12.6 µM [inhibitor, full curve, poor fit] | –
COc1ccc(S(=O)(=O)n2ccc(-c3ccc(OCCN(C)c4ccccn4)cc3)n2)cc1 | inconclusive: 178 µM [inhibitor, partial curve, poor fit] | –
Cc1ccc(/C=C/C(=O)OCC(=O)N2CC(=O)Nc3ccccc32)o1 | inconclusive: 39.8 µM [inhibitor, partial curve, poor fit] | –

Record cards, as listed above.
CC(C)C(=O)NCC1CN(Cc2ccccc2)C(=O)c2c(ccnc2-c2ccc(OCC(=O)O)cc2)O1 (stereo not drawn) in the list: Potency: inconclusive: 28.2 µM [inhibitor, single point]
C=CCn1c(-c2cccc(OC)c2OC)n[nH]c1=S in the list: Potency: inconclusive: 22.4 µM [inhibitor, partial curve, poor fit]

Next records.

SMILES | Potency | activity change, negative = inhibition
CCOc1ccc(N(CC(=O)NCc2ccc(Cl)cc2Cl)S(C)(=O)=O)cc1 | – | inactive: 1.33%
Cc1cn(CCNC(=O)c2cn(C3CCC(N)CC3)nn2)nn1 (stereo not drawn) | – | inactive: 41.9%
CCCCn1c(=O)[nH]c(=O)c2c1nc(CSc1nnnn1-c1ccc(C)cc1C)n2CC | inconclusive: 28.2 µM [inhibitor, partial curve] | –
CC(NC(=O)NCC1CCCC1)C(=O)NC(C)(C)C (stereo not drawn) | inconclusive: 2.24 µM [inhibitor, full curve, poor fit] | –
CCc1ccc(NC(=S)Nc2ccc(C)c(S(=O)(=O)N(CC)CC)c2)cc1 | inconclusive: 44.7 µM [inhibitor, partial curve, poor fit] | –
Cn1cc(/C=C2/CC(=O)N(c3ccc(C(=O)O)cc3)C2=O)c2ccccc21 | inconclusive: 100 µM [inhibitor, single point] | –
Cc1noc(C)c1S(=O)(=O)N1CCCC(Cc2nncn2C)C1 (stereo not drawn) | – | inactive: 18.2%
CCOc1ccc(CNC(=O)Cn2nc(C)c3nn(-c4ccc(Cl)cc4)c(C)c3c2=O)cc1OC | inconclusive: 126 µM [inhibitor, partial curve, poor fit] | –
N=c1c2c(-c3ccccc3)c(-c3ccccc3)n(Cc3ccco3)c2ncn1Cc1ccccc1 | – | inactive: 33.2%
COc1ccc(CNCc2c(C(=O)O)c(C)n(Cc3ccc(Cl)cc3)c2C)c(OC)c1 | inconclusive: 50.1 µM [inhibitor, partial curve, poor fit] | –
CCc1cccc(NS(=O)(=O)c2c(C)n[nH]c2C)c1 | inconclusive: 79.4 µM [inhibitor, single point] | –
CCN(CC(=O)NC(C)(C)C)C(=O)CSc1nc2ccccc2o1 | – | inactive: 5.38%
COc1ccc(C2=NN(C(=O)c3ccccc3)C(c3ccc(OC)c(OC)c3)C2)c(O)c1 (stereo not drawn) | – | inactive: 53.4%
O=[N+]([O-])c1c(Nc2ccc(O)cc2)cc(N2CCOCC2)c2nonc12 | – | inactive: -13.3%
Cc1ccc(CN2CCSc3ccc(C(=O)NCCCN4CCOCC4)cc32)cc1 | inconclusive: 100 µM [inhibitor, partial curve, poor fit] | –
CC1(C(=O)NCc2ccccc2)Cn2c(ccc2-c2ccco2)C(=O)N1Cc1ccccc1F (stereo not drawn) | – | inactive: 23.8%
CC(=O)Nc1n[nH]c(S(=O)(=O)Cc2ccc(Cl)cc2Cl)n1 | inconclusive: 4.47 µM [inhibitor, full curve, poor fit] | –
COc1ccc(CNC(=O)c2cc3c(=O)n(C)c4ccccc4c3n2C)cc1 | – | inactive: -12.1%
O=C1CCC([N+](=O)[O-])C(c2ccc(C(F)(F)F)cc2)N1 (stereo not drawn) | inconclusive: 126 µM [inhibitor, single point] | –
Cc1cc(C(=O)N[C@H](c2ccccc2)[C@@]2(C)C[C@@H]2[C@@H](C)C(=O)Nc2ccc3ccccc3c2)n(C)n1 | inconclusive: 50.1 µM [inhibitor, partial curve, poor fit] | –
CC(=O)c1cccc(CN2CCN(CC=C(C)C)C(CCO)C2)c1 (stereo not drawn) | inconclusive: 44.7 µM [inhibitor, partial curve, poor fit] | –
